Some results were stated once for a whole list of compounds, not compound by compound. At least one compound was matched to its structure with a doubt left.
Tested on: human NSCLC cells such as A549, H1975 and H3122
Experiment: MTT assay, human NSCLC cells (summary statement)
Format: cell-based
Details: read-out: half maximum concentration (IC50) for growth inhibition
Description: 3,3′-Disclenodipropionic acid-D8 (D-DSePA, chemical structure shown in FIG. 1) was synthesized by reacting freshly prepared sodium selenide (Na2Se2) and 3-bromopropionic acid-D4 in D2O solvent with 42% yield. The synthesized D-DSePA was purified and characterized by NMR spectroscopy and mass spectrometry. The molecular structure of D-DSePA has been established by single-crystal X-ray diffraction analysis. The treatment of D-DSePA and un-deuterated DSePA inhibited the growth of human NSCLC cells such as A549, H1975 and H3122 with half maximum concentration (IC50) in the range of 5-50 μM by MTT assay. […] Finally, at identical treatment concentration, D-DSePA offered better radioprotection to non-cancerous WI38 cells with a dose modification factor (DMF) of 1.16±0.05 as compared to un-deuterated DScPA with DMF of 1.12±0.03.
MTT Assay—To evaluate the anti-proliferative effect of D-DScPA and DScPA, Cells (˜5×10^3) suspended in 100 μl of complete culture medium were seeded in each well of 96 well plates. […] The percentage (%) cytotoxicity was calculated from the decrease in absorbance at 570 nm of treated groups as compared to that of control group. […] The therapeutic index was calculated by normalizing the IC50 concentration of D-DSePA/DSePA in non-cancerous cells to that in cancerous cells.

Structure (SMILES): O=C(O)CC[Se][Se]CCC(=O)O [D-DSePA, 3,3′-diselenodipropionic acid-D8]
- IC50: 5 to 50 µM

— patent US20240208901A1, “Deuterated 3,3'-Diselenodipropionic Acid (DSePA) and Its Use as an Anticancer or Radioprotective Agent” (Secretary, Department of Atomic Energy, priority 2022, published 2024)
